Data from patent US4864017 (dated 1989).

Assay: general procedure: solution-phase peptide synthesis; diethylphosphoryl cyanide, triethylamine

Row | Substance | step yield (coupling step) | step yield (late stage modification step)
1 | [5S-[[(N-tert-Butyloxycarbonyl-L-phenylalanyl)-N^im -tosyl-L-histidyl]amino]-3R,4R-dihydroxy-2R-isopropyl-7-methyl-octanoyl]-L-isoleucyl-2-pyridylmethylamide | 60% | –
2 | [5S-[[(N-tert-Butyloxycarbonyl-L-phenylalanyl)-L-histidyl]amino]-3R,4R-dihydroxy-2R-isopropyl-7-methyloctanoyl]-L-isoleucyl-2pyridylmethylamide | – | 76%
